We go through two substances from publication PMC10231130.

Chains of the proteins cited; added tags and fusions are not shown. Lines headed by an entry give the natural chain unless they say otherwise; changes in a name come on top.
UniProt Q8WUM4: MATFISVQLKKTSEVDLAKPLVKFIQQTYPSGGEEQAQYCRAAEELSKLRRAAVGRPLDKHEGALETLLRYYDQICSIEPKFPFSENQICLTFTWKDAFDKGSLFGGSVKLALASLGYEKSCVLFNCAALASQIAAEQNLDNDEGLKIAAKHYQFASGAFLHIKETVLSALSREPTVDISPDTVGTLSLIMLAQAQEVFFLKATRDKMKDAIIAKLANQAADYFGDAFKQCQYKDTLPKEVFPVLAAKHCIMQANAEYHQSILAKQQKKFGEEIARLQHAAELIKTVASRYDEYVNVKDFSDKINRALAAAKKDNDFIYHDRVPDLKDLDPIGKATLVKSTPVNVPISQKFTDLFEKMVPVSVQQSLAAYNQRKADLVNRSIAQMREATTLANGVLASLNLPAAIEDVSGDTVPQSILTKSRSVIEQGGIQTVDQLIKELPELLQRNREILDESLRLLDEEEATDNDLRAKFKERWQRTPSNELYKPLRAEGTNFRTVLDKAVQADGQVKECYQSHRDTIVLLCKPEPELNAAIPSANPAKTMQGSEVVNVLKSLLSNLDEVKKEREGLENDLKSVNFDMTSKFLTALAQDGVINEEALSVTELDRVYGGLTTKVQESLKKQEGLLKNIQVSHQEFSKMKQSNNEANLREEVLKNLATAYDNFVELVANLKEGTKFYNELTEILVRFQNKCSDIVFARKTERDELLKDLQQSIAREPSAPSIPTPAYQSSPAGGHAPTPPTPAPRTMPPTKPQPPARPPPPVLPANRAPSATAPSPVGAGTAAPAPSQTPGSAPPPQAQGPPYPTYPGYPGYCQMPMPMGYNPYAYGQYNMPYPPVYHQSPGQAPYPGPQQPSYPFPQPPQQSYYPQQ
UniProt P25223: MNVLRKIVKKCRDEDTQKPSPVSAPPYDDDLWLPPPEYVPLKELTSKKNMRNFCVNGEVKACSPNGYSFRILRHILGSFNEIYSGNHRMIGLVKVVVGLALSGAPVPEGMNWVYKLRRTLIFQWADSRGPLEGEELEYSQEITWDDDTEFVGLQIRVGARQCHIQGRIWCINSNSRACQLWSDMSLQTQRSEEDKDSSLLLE
UniProt Q99816: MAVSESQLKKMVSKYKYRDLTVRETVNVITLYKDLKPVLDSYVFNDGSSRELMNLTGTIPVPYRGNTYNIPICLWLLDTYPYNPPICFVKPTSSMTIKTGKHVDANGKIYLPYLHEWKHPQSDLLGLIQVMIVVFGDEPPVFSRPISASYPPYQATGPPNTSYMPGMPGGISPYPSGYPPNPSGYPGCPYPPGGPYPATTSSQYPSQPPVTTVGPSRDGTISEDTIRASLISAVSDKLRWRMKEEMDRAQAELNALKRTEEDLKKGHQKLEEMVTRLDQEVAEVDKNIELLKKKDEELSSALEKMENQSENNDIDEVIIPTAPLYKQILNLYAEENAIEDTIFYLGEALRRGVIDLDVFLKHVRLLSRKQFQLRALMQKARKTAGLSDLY

These are yes or no findings as the source states them, for the method shown. Binding calls can cover weak binding; strength is not graded here.

Experiment [1] concerns the target recombinant human Alix, His-tagged (human) (UniProt Q8WUM4). The experiment in a line: ELISA; both purified.
The target in experiment [2] is recombinant RABV M, His-tagged (rabies virus (strain not stated for the construct)) (UniProt P25223). As to the kind of experiment: ELISA; both purified. A general note: ELISA stands for enzyme-linked immunosorbent assay.

In the case of “recombinant TSG-UEV (N-terminal part of TSG101), His-tagged (from UniProt Q99816) (domain or fragment)”, the binding entry in experiment [1] and in experiment [2] was “binds” in each case.

Regarding “recombinant TSG-ΔUEV (C-terminal part of TSG101), FLAG-tagged (from UniProt Q99816) (domain or fragment)”, the binding entry in experiment [2] is recorded as “binds”.
